# Results taken from article PMC3798268, “A Minimal Nitrogen Fixation Gene Cluster from Paenibacillus sp. WLY78 Enables Expression of Active Nitrogenase in Escherichia coli”.
# Assays:
# [1] = system: E. coli sigma70-RNAP holoenzyme (Escherichia coli); assay: DNase I footprinting; conditions: 10 pmol RNAP, 400 ng DNA, -35 and -10 regions protected, BSA control; footprinting: binding 30 min at 25 C, DNase I 40 s at 37 C; commercial protein; label: 5'-FAM on pfoot-up strand; probe letters rebuilt from the primers and the genome
# [2] = system: sigma70 (sigmaA, RpoD) (Paenibacillus sp. WLY78); assay: EMSA; conditions: EMSA: Roche DIG Gel Shift Kit, 0.03 pmol labeled DNA, buffer not stated, recombinant protein
# [3] = system: sigma70 (sigmaA, RpoD) (Paenibacillus sp. WLY78); assay: competition with a labelled probe; conditions: 2.4 pmol protein, unlabeled N1 as competitor; EMSA: Roche DIG Gel Shift Kit, 0.03 pmol labeled DNA, buffer not stated; recombinant protein; label: digoxigenin (DIG Gel Shift Kit)
sequence,measurement,setting,value
AGGAGAGCCGTATTTACGGACTCTCTTTTTTTACGTCTTGATGTTATTGAGAATATGAAATGTAACCGCGCACATGTAAAGTGTACGATATATTACTTGACGTAAAATTTGACACATATGTGAATTGAGGATAAATGTCAGGGATTTCATGGAGAAGTGAATTGACTGTATTTGTCCCTGTCTCTAAGATGTAATTATATTCCAGACAAAAACAGAGATTTATGTAAGGGAATATAACGTAGAGAGGAGGGAATGAATGGACTCTTTAGCTGATCTCTCGGAAACCCCCTTAGCATTAGAAACTCTCAGACGACATCCCTGTTATAACGAAGAGGCACATCGCTATTTTGCGCGCATTCATCTTCCAGTAGC (double strand) [nifB promoter footprinting fragment],binding result,[1],binds
GTACGGAGTATCCAGCTCCGTAGCATGCAAATCCTCTGG (double strand) [scrambled 39 bp DNA],binding result,[2],no binding
GGAGAAGTGAATTGACTGTATTTGTCCCTGTCTCTAAGATGTAATTATAT (double strand) [nifB promoter 50 bp (-47 to +3)],binding result,[3],binds
same,binding result,"[2]; without core RNAP, label: digoxigenin (DIG Gel Shift Kit)",binds

# The exact form of at least one protein or probe is not confirmed. For some of these results: Negatives hold for the conditions tested. For some of these results: At least one verdict was read from the data and is not stated in words by the source.
